# Experimental data published in PMC7819943, “Rice protein-binding microarrays: a tool to detect cis-acting elements near promoter regions in rice”.
# Chains of the proteins cited; added tags and fusions are not shown.
# UniProt Q0JBA9, entry or part of it: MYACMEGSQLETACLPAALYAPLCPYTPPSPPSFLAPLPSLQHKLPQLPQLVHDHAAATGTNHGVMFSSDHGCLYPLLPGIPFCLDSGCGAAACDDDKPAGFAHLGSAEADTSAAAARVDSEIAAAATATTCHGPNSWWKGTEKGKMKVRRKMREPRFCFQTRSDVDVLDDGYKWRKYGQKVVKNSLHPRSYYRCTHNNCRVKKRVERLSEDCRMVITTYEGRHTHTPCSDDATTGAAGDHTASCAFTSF
# This is one part of the list.
# Target: OsWRKY34 (Oryza sativa, UniProt Q0JBA9 1-250)
# Experiment: protein-binding microarray (RPBM); PBS, 2% BSA, 51.3 ng/ul salmon testes DNA, 50 uM zinc acetate, 200 nM TF, 25 C, 1 h; high values mean tight binding
# Conditions: protein: recombinant; tags: N-terminal polyhistidine and DsRed monomer fusion (pET32a); label: CyDye5-dUTP incorporated in the synthesized complementary strand; 3' TTTTT single-stranded linker to array surface; dsDNA, one strand shown
# How it was run: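 In PBS with 2% BSA, salmon testes DNA and 50 µM zinc acetate, 200 nM protein was incubated on a custom Agilent array at 25 °C for 1 h and then washed off. The array had been made double-stranded by primer extension with Cy5-dUTP and blocked with 2% BSA. The proteins were transcription factors fused N-terminally to polyhistidine and DsRed, expressed in E. coli BL21-CodonPlus and purified on Ni–NTA. The binding signal is per-feature fluorescence intensity (arbitrary units) from an Axon 4000B scanner.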
row,Sequence,binding signal
1,TTCATCCCGACATATCATAGCCGCTGGAAATAAATGGCCTCGGAGTCACCTAGTGCAG,8980 fluorescence intensity (a.u.)
2,TTTCTCTACCTGTGCCGCGCCCACGGTTCTAGTACCACTACGGAGTCACCTAGTGCAG,9940 fluorescence intensity (a.u.)
3,TTTACCTTGGTTATCTTCTCCTATTTCAATACTCGTGTGTCGGAGTCACCTAGTGCAG,8650 fluorescence intensity (a.u.)
4,CCATGCCGAATTTTCCGTACTTCTTTTCCATGCGAGTTTTCGGAGTCACCTAGTGCAG,9700 fluorescence intensity (a.u.)
5,GTTTTACGTTAGCACTCTTTCATCCTTACTATCAAGGTGACGGAGTCACCTAGTGCAG,9950 fluorescence intensity (a.u.)
6,CCCTAGCGCGGCGCCATCATCATCCCAATCGTCCGCTACACGGAGTCACCTAGTGCAG,8250 fluorescence intensity (a.u.)
7,TGGCAAACTTTGACTTTGTTCTTGGTCCATGATTTTGATCCGGAGTCACCTAGTGCAG,9570 fluorescence intensity (a.u.)
8,TATTTCTATATGGACTTAGTCTCCTCTTCTAATATTCCTTCGGAGTCACCTAGTGCAG,8120 fluorescence intensity (a.u.)
9,AGGGAGGGGAAGGGGAAGCTCGTGGGAGTCGTAGTGATTCCGGAGTCACCTAGTGCAG,8120 fluorescence intensity (a.u.)
10,GGGCTGCTGGATTTTGCGTCCTCTCGTGCGGCCGCGTCGTCGGAGTCACCTAGTGCAG,8300 fluorescence intensity (a.u.)
11,TTCCAAGCTTTTCTTCCCTCTCATGGAAGAATTTTCCGTTCGGAGTCACCTAGTGCAG,8080 fluorescence intensity (a.u.)
12,GAAAGTTTATGTTGTTATGCTTCAACTGTTATTCATTATTCGGAGTCACCTAGTGCAG,8900 fluorescence intensity (a.u.)
13,TAATTGTACATATTGCGATTAATTTGCGAGACAAATTTTTCGGAGTCACCTAGTGCAG,8320 fluorescence intensity (a.u.)
14,TCTTTCGAGACGGTTTGTTTGCAGCATGTGCTCACTTTCACGGAGTCACCTAGTGCAG,9500 fluorescence intensity (a.u.)
15,CACGCGATGAAATCATCTGCGCATCCTGTACTTTCAATTTCGGAGTCACCTAGTGCAG,8030 fluorescence intensity (a.u.)
16,CCGCCGCCGCTCTTGCCCGCCATCGCCCCGCCGGTCTCGGCGGAGTCACCTAGTGCAG,11900 fluorescence intensity (a.u.)
17,GATTACGATCTTGCTCTGTTGCATGCTGTCTTGATTAAACCGGAGTCACCTAGTGCAG,12600 fluorescence intensity (a.u.)
18,CTTCCTATTTTCCACTCACTTGGTTTTTTTATGCTTCTCGCGGAGTCACCTAGTGCAG,8090 fluorescence intensity (a.u.)
19,CGGCCTTCCACTGCCCGCCGCCGCCGCTCCAGCCCACCACCGGAGTCACCTAGTGCAG,9360 fluorescence intensity (a.u.)
20,TGTGCGCGTGTTGTTTTTTTGGCTTCTTTTTCGCTTGCCACGGAGTCACCTAGTGCAG,11400 fluorescence intensity (a.u.)
21,CGCTTTCCTCACAATTCATCGCACTCTCGCTCGTTGATGTCGGAGTCACCTAGTGCAG,13500 fluorescence intensity (a.u.)

row,Sequence,binding signal
1,TTGTACGACCAGGGCCCATCACCATCTCTCGCTGCATTTACGGAGTCACCTAGTGCAG,8830 fluorescence intensity (a.u.)
2,ACCACTATCCGTTCGAATTCGCTCCGTTTTCACCCTTCGCCGGAGTCACCTAGTGCAG,8380 fluorescence intensity (a.u.)
3,ACGACGACCGCATCTCTCTCGCCTTGCCGTGAAGCTTCGACGGAGTCACCTAGTGCAG,8900 fluorescence intensity (a.u.)
4,TCCTAATGACTCCACATTTTCCTGTCAATTTCCACACTAACGGAGTCACCTAGTGCAG,12000 fluorescence intensity (a.u.)
5,CCGAGCCGCATCCTCACCGCCTCCGACGCCGCCCGCGAGGCGGAGTCACCTAGTGCAG,10500 fluorescence intensity (a.u.)
6,CCCAAACTACAAACCAACTGAATTTTGCTTTCAACATAACCGGAGTCACCTAGTGCAG,8320 fluorescence intensity (a.u.)
7,GATCTCCTCTAGCTTTCTCGCTCGCCTCTCCTCTCCTGTTCGGAGTCACCTAGTGCAG,8790 fluorescence intensity (a.u.)
8,TTCATAGGTTTGGACCCTCACGAGCCCTCGGTCCTACACGCGGAGTCACCTAGTGCAG,8590 fluorescence intensity (a.u.)
9,AGAGAGAGAGACTCATATCGCCGCCACATCTCTCACATCTCGGAGTCACCTAGTGCAG,8870 fluorescence intensity (a.u.)
10,GGCGCTGGTATTGATGCGTCATTTTCATCTATTTGCATTTCGGAGTCACCTAGTGCAG,9680 fluorescence intensity (a.u.)
11,AGTAACTACCTGACTATCTAACTTTCTTTTTTCTTCAGGACGGAGTCACCTAGTGCAG,8760 fluorescence intensity (a.u.)
12,ATGTTTTATGCACTTGTTTCACTGTCACATCCATTGTATGCGGAGTCACCTAGTGCAG,8750 fluorescence intensity (a.u.)
13,TGTTTTGACTTTTTGACCCACCCAAACTCATTCTCACCTCCGGAGTCACCTAGTGCAG,11500 fluorescence intensity (a.u.)
14,TTTCACTCTCGCGAACCTTCCACACACAGACTAGGAGCTTCGGAGTCACCTAGTGCAG,8340 fluorescence intensity (a.u.)
15,CCTCTGCACTCAGATTTGCAAGGTGGTGTTATTACCCATACGGAGTCACCTAGTGCAG,8100 fluorescence intensity (a.u.)
16,TAGCCATCTCAGCCAATTGTGTTTTTTCCCTTATGGTTGACGGAGTCACCTAGTGCAG,8470 fluorescence intensity (a.u.)
17,TTCACGGTGTTTCGACCTCTGTGTTCTGGTAGCTTTTCTTCGGAGTCACCTAGTGCAG,9940 fluorescence intensity (a.u.)
18,TTCCTTAAGGCTCTGAAGCATATCTCCAGCTGTTACAGCACGGAGTCACCTAGTGCAG,8360 fluorescence intensity (a.u.)
19,AGCATTTCCATCCACCACACGCGTACGTCCCCGTCACGCGCGGAGTCACCTAGTGCAG,8940 fluorescence intensity (a.u.)
20,TCTGGTCCGTCCAACATCTATTTGTCTCTTTGTAACCACACGGAGTCACCTAGTGCAG,10600 fluorescence intensity (a.u.)
21,ATGCCGTTGACTTTTTAAAATATATTTGACCATTTCCTATCGGAGTCACCTAGTGCAG,21700 fluorescence intensity (a.u.)

# Individual results from the list.
# TGTTTTGACTTTTTGACCCACCCAAACTCATTCTCACCTCCGGAGTCACCTAGTGCAG – binding signal: 11500 fluorescence intensity (a.u.)
# GATCTCCTCTAGCTTTCTCGCTCGCCTCTCCTCTCCTGTTCGGAGTCACCTAGTGCAG – binding signal: 8790 fluorescence intensity (a.u.)
